Test results as given in article PMC6022656.
Results are given in words; binding and its absence hold for the method and conditions named. Binding seen in cells or lysates may run through a third protein. Some binding calls cover weakened binding; strength is not graded here. Sequences can lack the tags named with a protein.

Key:
[1] = molecular target: GST-OsCDKB1;1 (rice (Oryza sativa)), Q8L4P8; test: pull-down; GST-OsCDKB1;1 on glutathione-Sepharose incubated with His-OsCYCA2;1 supernatant, 4 °C, 2 h, PBS washes; eluted with 10 mM reduced glutathione; blot with anti-His6; only the target purified; conditions: remark: other sources report otherwise
[2] = molecular target: OsCDKB1;1 in pSPYNE-35S (BiFC fusion) (rice (Oryza sativa)), Q8L4P8; test: split reporter; BiFC; pSPYCE-35S-OsCYCA2;1 and pSPYNE-35S-OsCDKB1;1 co-injected into N. benthamiana leaves; confocal images after 3 d; conditions: remark: other sources report otherwise

| Binder | binding [1] | binding [2] |
| --- | --- | --- |
| His-OsCYCA2;1, Q2QQ96 1-490 (protein) MAGRKENPVLTACQAPSGRITRAQAAANRGRFGFAPSVSLPARTERKQTAKGKTKRGALDEITSASTATSAPQPKRRTVLKDVTNIGCANSSKNCTTTSKLQQKSKPTQRVKQIPSKKQCAKKVPKLPPPAVAGTSFVIDSKSSEETQKVELLAKAEEPTNLFENEGLLSLQNIERNRDSNCHEAFFEARNAMDKHELADSKPGDSSGLGFIDIDNDNGNPQMCASYASEIYTNLMASELIRRPRSNYMEALQRDITKGMRGILIDWLVEVSEEYKLVPDTLYLTINLIDRFLSQHYIERQKLQLLGITSMLIASKYEEICAPRVEEFCFITDNTYTKAEVLKMEGLVLNDMGFHLSVPTTKTFLRRFLRAAQASRNVPSITLGYLANYLAELTLIDYSFLKFLPSVVAASAVFLARWTLDQSDIPWNHTLEHYTSYKSSDIQICVCALRELQHNTSNCPLNAIREKYRQQKFECVANLTSPELGQSLFS | binds | – |
| OsCYCA2;1 in pSPYCE-35S (BiFC fusion), Q2QQ96 1-490 (protein) MAGRKENPVLTACQAPSGRITRAQAAANRGRFGFAPSVSLPARTERKQTAKGKTKRGALDEITSASTATSAPQPKRRTVLKDVTNIGCANSSKNCTTTSKLQQKSKPTQRVKQIPSKKQCAKKVPKLPPPAVAGTSFVIDSKSSEETQKVELLAKAEEPTNLFENEGLLSLQNIERNRDSNCHEAFFEARNAMDKHELADSKPGDSSGLGFIDIDNDNGNPQMCASYASEIYTNLMASELIRRPRSNYMEALQRDITKGMRGILIDWLVEVSEEYKLVPDTLYLTINLIDRFLSQHYIERQKLQLLGITSMLIASKYEEICAPRVEEFCFITDNTYTKAEVLKMEGLVLNDMGFHLSVPTTKTFLRRFLRAAQASRNVPSITLGYLANYLAELTLIDYSFLKFLPSVVAASAVFLARWTLDQSDIPWNHTLEHYTSYKSSDIQICVCALRELQHNTSNCPLNAIREKYRQQKFECVANLTSPELGQSLFS | – | binds |
